PMC10699776
No constants are given. Whether binding was seen depends on the method and setting. Binding seen in cells or lysates may run through a third protein. Some results given as binding are weak or reduced against the parent protein; the word gives no strength.

Target: T1, mCherry-RAD54L2^WT (UniProt Q9Y4B4)
T1 sequence: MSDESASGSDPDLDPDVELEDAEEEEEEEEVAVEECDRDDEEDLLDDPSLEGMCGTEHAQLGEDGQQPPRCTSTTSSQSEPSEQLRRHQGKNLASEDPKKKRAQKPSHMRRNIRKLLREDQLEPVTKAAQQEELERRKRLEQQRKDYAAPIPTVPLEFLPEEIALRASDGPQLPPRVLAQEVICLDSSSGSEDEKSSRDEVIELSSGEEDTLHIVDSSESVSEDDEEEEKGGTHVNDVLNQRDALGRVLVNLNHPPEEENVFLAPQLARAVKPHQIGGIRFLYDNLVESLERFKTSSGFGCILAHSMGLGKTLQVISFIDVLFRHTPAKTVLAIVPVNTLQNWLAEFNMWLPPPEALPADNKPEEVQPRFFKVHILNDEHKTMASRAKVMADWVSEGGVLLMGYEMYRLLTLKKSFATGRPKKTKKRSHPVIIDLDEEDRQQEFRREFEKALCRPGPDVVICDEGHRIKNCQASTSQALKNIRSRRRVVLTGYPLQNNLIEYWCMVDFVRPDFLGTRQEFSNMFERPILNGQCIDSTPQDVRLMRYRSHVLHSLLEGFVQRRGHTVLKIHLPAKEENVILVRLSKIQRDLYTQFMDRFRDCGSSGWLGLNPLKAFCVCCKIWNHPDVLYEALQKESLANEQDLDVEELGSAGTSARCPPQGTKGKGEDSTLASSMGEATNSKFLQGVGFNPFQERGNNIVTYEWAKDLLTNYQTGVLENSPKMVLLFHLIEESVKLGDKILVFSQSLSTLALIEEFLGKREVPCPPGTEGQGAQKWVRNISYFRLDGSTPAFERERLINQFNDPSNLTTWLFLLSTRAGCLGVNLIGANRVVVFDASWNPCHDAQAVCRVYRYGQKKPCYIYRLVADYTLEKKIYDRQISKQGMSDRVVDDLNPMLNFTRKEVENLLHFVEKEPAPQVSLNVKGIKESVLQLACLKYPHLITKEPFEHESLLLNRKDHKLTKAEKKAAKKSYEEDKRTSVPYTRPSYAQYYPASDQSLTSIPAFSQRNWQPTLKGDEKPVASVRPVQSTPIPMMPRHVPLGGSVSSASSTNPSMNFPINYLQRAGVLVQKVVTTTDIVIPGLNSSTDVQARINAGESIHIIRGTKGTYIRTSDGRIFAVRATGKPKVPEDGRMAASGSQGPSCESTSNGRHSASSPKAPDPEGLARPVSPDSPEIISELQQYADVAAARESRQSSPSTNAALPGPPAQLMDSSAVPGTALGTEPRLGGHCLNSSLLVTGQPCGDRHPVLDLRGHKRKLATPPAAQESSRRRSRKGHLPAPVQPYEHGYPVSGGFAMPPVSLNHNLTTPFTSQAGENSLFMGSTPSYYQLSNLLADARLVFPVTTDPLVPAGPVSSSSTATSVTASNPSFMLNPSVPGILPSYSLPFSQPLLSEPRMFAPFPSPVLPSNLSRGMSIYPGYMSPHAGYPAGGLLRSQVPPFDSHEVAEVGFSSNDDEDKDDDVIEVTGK
Experiment: co-IP; mCherry IP on RFP-Trap magnetic beads, 2 hours at 4°C, from benzonase-treated extracts of RPE-1 cells, untreated or treated with 100 μM etoposide for 1 hour (also G1- or S-phase synchronized cells); IP buffer 20 mM tris-HCl pH 7.5, 150 mM NaCl, 2 mM MgCl2, 10% glycerol, 0.5% NP-40, 20 mM NEM; Western blot

binding: binds
B1: zinc finger protein associated with TDP2 and TOP2 (ZATT/ZNF451) (enzyme, UniProt Q9Y4E5 1-1061)
chain: MGDPGSEIIESVPPAGPEASESTTDENEDDIQFVSEGPLRPVLEYIDLVSSDDEEPSTSYTDENIKRKDHIDYQKDKVALTLARLARHVEVEKQQKEEKNRAFREKIDFQHAHGLQELEFIRGHSDTEAARLCVDQWLKMPGLKTGTINCGTKSSFRRGGHTWVSGKPILCPIMHCNKEFDNGHLLLGHLKRFDHSPCDPTITLHGPFFSSFACVVCYKKFVTQQQYRDHLFDKEATDDGHNNNLLPQIIQCFACPNCFLLFSRKEECSKHMSGKNHFHQSFKLGDNKGIAHPISFPSFAKKLLISLCKDVPFQVKCVACHKTLRSHMELTAHFRVHCRNAGPVAVAEKSITQVAEKFILRGYCPDCNQVFVDETSTQNHKQNSGHKVRVINSVEESVLLYCHSSEGNKDPSSDLHLLLDQSKFSSLKRTMSIKESSSLECIAIPKKKMNLKDKSHEGVACVQKEKSVVKTWFCECNQRFPSEDAVEKHVFSANTMGYKCVVCGKVCDDSGVIRLHMSRIHGGAHLNNFLFWCRTCKKELTRKDTIMAHVTEFHNGHRYFYEMDEVEGETLPSSSTTLDNLTANKPSSAITVIDHSPANSSPRGKWQCRICEDMFDSQEYVKQHCMSLASHKFHRYSCAHCRKPFHKIETLYRHCQDEHDNEIKIKYFCGLCDLIFNVEEAFLSHYEEHHSIDYVFVSEKTETSIKTEDDFPVIETSNQLTCGCRESYICKVNRKEDYSRCLQIMLDKGKLWFRCSLCSATAQNLTDMNTHIHQVHKEKSDEEEQQYVIKCGTCTKAFHDPESAQQHFHRKHCFLQKPSVAHFGSEKSNLYKFTASASHTERKLKQAINYSKSLDMEKGVENDLSYQNIEEEIVELPDLDYLRTMTHIVFVDFDNWSNFFGHLPGHLNQGTFIWGFQGGNTNWKPPLNCKIYNYLNRIGCFFLHPRCSKRKDAADFAICMHAGRLDEQLPKQIPFTILSGDQGFLELENQFKKTQRPAHILNPHHLEGDMMCALLNSISDTTKECDSDDNMGAKNTSIGEEFISTEDVELEEAIRRSLEEM
